Data taken from paper PMC5325621.
These are yes or no findings as the source states them, for the method shown. Binding seen in cells or lysates may run through a third protein. Some binding calls cover weakened binding; strength is not graded here.

Chains of the proteins cited; added tags and fusions are not shown. Lines headed by an entry give the natural chain unless they say otherwise; changes in a name come on top. A line that says so, or that is headed by a name, gives the form on record, which may keep a tag or linker.
UniProt P29067: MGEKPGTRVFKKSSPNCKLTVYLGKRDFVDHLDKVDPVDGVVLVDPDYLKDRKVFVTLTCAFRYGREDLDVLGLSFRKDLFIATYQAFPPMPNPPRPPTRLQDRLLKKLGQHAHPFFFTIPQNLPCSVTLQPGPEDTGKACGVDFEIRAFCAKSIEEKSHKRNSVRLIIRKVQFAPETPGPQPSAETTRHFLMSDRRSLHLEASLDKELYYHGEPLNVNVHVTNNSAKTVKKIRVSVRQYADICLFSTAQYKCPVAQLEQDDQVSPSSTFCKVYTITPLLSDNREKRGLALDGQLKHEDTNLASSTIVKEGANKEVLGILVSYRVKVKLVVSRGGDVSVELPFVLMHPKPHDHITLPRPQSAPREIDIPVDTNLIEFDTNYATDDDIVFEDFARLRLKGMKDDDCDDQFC
YFP-β-arrestin2 Thr383Asp mutant (P29067, form named): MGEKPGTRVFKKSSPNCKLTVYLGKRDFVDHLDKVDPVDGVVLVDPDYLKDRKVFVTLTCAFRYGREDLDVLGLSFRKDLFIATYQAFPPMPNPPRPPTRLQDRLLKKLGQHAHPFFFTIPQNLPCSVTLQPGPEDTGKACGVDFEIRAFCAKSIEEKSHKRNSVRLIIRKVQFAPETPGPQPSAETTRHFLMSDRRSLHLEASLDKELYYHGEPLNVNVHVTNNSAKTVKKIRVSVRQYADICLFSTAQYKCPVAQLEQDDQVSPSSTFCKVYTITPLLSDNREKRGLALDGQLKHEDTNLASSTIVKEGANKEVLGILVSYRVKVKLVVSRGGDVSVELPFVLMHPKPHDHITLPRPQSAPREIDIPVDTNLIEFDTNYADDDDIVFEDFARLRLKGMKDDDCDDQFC
UniProt P27361: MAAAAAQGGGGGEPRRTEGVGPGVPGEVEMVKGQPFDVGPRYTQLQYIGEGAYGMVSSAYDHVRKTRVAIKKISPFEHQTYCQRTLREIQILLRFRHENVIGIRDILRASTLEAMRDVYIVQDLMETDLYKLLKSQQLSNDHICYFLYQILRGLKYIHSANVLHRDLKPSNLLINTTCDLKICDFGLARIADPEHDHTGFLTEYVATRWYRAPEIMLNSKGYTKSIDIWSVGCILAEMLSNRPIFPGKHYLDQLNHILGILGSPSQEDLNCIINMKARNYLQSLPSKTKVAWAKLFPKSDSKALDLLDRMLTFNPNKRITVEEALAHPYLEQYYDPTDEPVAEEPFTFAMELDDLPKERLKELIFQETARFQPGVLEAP
UniProt P28482: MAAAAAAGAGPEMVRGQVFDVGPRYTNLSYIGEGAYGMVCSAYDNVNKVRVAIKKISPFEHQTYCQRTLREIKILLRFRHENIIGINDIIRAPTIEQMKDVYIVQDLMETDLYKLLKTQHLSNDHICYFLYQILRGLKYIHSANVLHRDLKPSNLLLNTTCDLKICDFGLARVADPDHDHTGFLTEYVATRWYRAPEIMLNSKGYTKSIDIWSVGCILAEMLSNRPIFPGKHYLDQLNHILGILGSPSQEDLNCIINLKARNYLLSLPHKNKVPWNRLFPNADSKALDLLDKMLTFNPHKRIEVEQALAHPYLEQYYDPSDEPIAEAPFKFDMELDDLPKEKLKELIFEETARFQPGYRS

What was measured:
[1] = target: YFP-β-arrestin2 (wild type) (rat) (UniProt P29067); test: co-IP; HEK-293 cells co-expressing YFP-β-arrestin2 and 5-HT2C receptor, vehicle or 1 µM 5-HT; Erk1/2 blotted in the YFP-β-arrestin2 immunoprecipitates
[2] = target: YFP-β-arrestin2 Thr383Asp mutant (rat) (UniProt P29067); test: as above

Row | binding [1] | binding [2] | Substance
1 | binds | binds | Extracellular signal-regulated kinase Erk1 (from UniProt P27361 1-379) (enzyme)
2 | binds | binds | Extracellular signal-regulated kinase Erk2 (from UniProt P28482 1-360) (enzyme)
